# Measurements taken from patent publication EP0316212B1 (priority 1987, dated 1989).
# For at least one compound, name, drawing or mass did not settle the structure.
# Biological target: reverse transcriptase du HIV1 (Human immunodeficiency virus type 1 group M subtype B, UniProt P04585)
# Assay: Reverse transcriptase activity of HIV1 incubated with NP derivatives, tested immediately
# Type: biochemical
# Details: HIV1 préincubé avec des dérivés NP
# Description: La technique de culture et de titrage de la reverse-transcriptase du HIV est rappelée ci-après : Des lymphocytes humains, préalablement activés par la PHA (phytohémagglutinine) sont incubés dans un milieu nutritif (RPMI 1640 + sérum de veau foetal + antibiotiques + β-mercaptoéthanol 10⁻⁵M + 2»g/ml polybrene + sérum anti-interféron 1/2000 + IL2 10%). Après centrifugation, le culot cellulaire est mis en présence du HIV1 (10.000 cpm/10⁶ cellules) pendant 1 heure à 37°. Après lavage et centrifugation, les cellules sont resuspendues dans du milieu nutritif. Les surnageants de culture cellulaire sont suivis pendant plusieurs jours pour leur activité reverse transcriptase. Ils sont centrifugés 7 minutes à 95000 tours et le culot est lysé par du Triton® 0,1% (produit Touzart et Matignon). Un mélange réactionnel est ajouté (Tris, DTT (dithiothreitol), MgCl₂, KCl, PolyA, Oligo dT, ³HTTP, H₂O) et après 1 heure d'incubation à 37°C, la réaction est arrêtée avec du pyrophosphate de sodium et de l'acide nucléique de levure est ajouté pour aider la précipitation. De l'acide trichloracétique (TCA) est ajouté et la solution est laissée 15 minutes à 4°C. Après filtration sous vide avec des filtres millipores 0.45 »m et plusieurs lavages avec du TCA (0.5%), on procède au rinçage à l'éthanol, au sèchage en étuve 37° et enfin au comptage. […]
smiles,measurement,value
"N[C@@H](CCCCNc1ccc([N+](=O)[O-])cc1[N+](=O)[O-])C(=O)O [DNP-lysine, DNP-Lysine]",concentrations for which séroneutralisation du virus is observed,10⁻⁶ M
